These are yes or no findings as the source states them, for the method shown. In cells and extracts the contact can be indirect. Some entries that bind do so weakly or less than the wild type.

Two molecules from article PMC12828400 can be followed below.

In experiment [1] the target is T1, CEP57L1 1-250 N-terminal residues (human (cDNA from HCT116 cells)) (UniProt Q8IYX8).
T1 sequence: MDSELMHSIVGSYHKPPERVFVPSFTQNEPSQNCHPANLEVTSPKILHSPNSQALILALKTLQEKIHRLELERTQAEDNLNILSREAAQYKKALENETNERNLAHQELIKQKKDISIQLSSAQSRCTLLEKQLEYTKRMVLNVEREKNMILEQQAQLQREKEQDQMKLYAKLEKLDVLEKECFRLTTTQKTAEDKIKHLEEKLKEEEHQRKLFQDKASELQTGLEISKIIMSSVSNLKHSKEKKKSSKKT
In words: co-IP; CEP57L1 fragments 1-250 or 251-460 (pCDNA3.1-His constructs) as bait; KLHL13 and CUL3 detected; Western blot. (A western blot detects proteins with antibodies after separation by electrophoresis.)

Experiment [2] concerns the target T2, CEP57L1 251-460 C-terminal residues (human (cDNA from HCT116 cells)) (UniProt Q8IYX8).
T2 sequence: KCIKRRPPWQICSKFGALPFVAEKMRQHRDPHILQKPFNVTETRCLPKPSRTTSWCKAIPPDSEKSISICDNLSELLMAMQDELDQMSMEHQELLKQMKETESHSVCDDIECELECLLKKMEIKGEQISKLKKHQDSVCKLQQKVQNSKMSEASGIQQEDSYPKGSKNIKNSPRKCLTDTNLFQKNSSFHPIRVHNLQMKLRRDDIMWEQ
The description is as above.

The target of experiment [3] is T3, CEP57L1 (human (endogenous in HCT116/SW620)) (UniProt Q8IYX8).
T3 sequence: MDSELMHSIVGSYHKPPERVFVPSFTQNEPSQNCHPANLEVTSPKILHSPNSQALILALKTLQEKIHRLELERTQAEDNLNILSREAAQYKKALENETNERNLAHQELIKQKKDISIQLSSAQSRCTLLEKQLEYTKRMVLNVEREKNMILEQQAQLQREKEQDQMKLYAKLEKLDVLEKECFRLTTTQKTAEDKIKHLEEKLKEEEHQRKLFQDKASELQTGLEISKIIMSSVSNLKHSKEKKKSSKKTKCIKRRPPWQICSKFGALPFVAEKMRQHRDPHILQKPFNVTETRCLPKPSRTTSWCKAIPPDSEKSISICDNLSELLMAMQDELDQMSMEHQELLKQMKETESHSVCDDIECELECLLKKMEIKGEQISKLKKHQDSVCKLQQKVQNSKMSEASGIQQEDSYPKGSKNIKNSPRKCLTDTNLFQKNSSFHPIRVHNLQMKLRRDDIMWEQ
Kind of experiment: co-IP; antibodies against KLHL13, CUL3 or CEP57L1 each used to precipitate; HCT116/SW620 cells with or without 300 ug/ml AGEs for 36 h (interactions attenuated by AGEs); Western blot.

In experiment [4] the target is T4, Kelch-like (KLHL)13 (human (endogenous in HCT116/SW620)) (UniProt Q9P2N7).
T4 sequence: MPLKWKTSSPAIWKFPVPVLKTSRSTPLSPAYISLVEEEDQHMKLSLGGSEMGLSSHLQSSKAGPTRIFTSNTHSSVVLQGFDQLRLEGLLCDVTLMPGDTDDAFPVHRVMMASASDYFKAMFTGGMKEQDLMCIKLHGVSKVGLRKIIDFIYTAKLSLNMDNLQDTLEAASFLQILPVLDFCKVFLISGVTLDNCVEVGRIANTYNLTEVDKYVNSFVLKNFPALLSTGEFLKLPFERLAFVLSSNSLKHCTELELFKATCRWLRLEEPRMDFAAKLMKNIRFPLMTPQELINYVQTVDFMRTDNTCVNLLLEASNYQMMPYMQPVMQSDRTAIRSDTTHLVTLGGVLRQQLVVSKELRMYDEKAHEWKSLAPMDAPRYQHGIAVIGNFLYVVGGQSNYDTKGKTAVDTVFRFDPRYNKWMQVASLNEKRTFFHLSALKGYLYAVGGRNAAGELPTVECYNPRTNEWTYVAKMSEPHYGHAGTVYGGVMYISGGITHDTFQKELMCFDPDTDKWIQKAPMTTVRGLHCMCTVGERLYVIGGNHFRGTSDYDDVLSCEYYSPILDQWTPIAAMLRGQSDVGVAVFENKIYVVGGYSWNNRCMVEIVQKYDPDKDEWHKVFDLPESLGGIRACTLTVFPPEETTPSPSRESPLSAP
The experiment is described as above.

B1: Kelch-like (KLHL)13 (protein, UniProt Q9P2N7 1-655)
chain: T4 sequence
Take B1: the binding result in experiment [1] is given as “binds”; in experiment [2], “binds weakly”; in experiment [3], “binds”.

B2: CEP57L1 (protein, UniProt Q8IYX8 1-460)
chain: T3 sequence
With B2, the binding entry in experiment [4] is recorded as “binds”.
